Construct, isoform or probe ends are uncertain for at least one entry.

The target of this series is T1, 4-1BB (CD137) extracellular portion (Mus musculus) (UniProt P20334).
T1 sequence: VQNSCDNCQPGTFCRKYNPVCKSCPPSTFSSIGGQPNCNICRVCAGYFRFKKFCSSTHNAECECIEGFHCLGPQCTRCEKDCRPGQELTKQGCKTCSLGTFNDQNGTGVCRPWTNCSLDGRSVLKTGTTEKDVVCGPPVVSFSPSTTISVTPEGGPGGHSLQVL
In words: SELEX. The note with it: 2'-F pyrimidines; purified recombinant protein; protein details: human IgG1 Fc fusion.
For “GGGAGAGAGGAAGAGGGAUGGGCGUCAACCCCUUUCAGUCUCCCCGUAAGCAUCUCUUCCACCAUAACCCAGAGGUCGAUAGUACUGGAUCCCCCC [4-1BB aptamer SEQ 40]”, the selection result is recorded as “selected”. For the sequence “GGGAGAGAGGAAGAGGGAUGGGACACUGAAAACGGGCAAGUGACUACGAUUCGUGUCAGACCAUAACCCAGAGGUCGAUAGUACUGGAUCCCCCC [4-1BB aptamer SEQ 42]”, the selection result is “selected”. With “GGGAGAGAGGAAGAGGGAUGGGCAAGCACUCUUCAGGCUAAGGACUCUCUUGACACCCCGCCAUAACCCAGAGGUCGAUAGUACUGGAUCCCCCC [4-1BB aptamer SEQ 7]” the entry was “selected”.

Consider “GGGAGAGAGGAAGAGGGAUGGGAAGACGAUACCUAGCCUCAAAAUUCCUCCCCCGACUUCCUCAUAACCCAGAGGUCGAUAGUACUGGAUCCCCCC [4-1BB aptamer SEQ 13]”, for which the selection result was “selected”. With “GGGAGAGAGGAAGAGGGAUGGGGCACUCUUACUUCUCGCCCACCAACCGAACCCAGCCAUCUCAUAACCCAGAGGUCGAUAGUACUGGAUCCCCCC [4-1BB aptamer SEQ 31]” the entry was “selected”; with “GGGAGAGAGGAAGAGGGAUGGGAUCAGUACAUGCUCCGGGGCAGCCGAAUAUCUCGCGCUUCAUAACCCAGAGGUCGAUAGUACUGGAUCCCCCC [4-1BB aptamer SEQ 24]”, “selected”. As for “GGGAGAGAGGAAGAGGGAUGGGCCGCCAUUAACCCUGAACAGAAUCUUCCUAUCCCAACCCGCAUAACCCAGAGGUCGAUAGUACUGGAUCCCCCC [4-1BB aptamer SEQ 21]”, the entry is “selected”.

As for “GGGAGAGAGGAAGAGGGAUGGGAACGGCCCAAUGACUUCGCCUUCUGCCCCCCUAAGCUUCCAUAACCCAGAGGUCGAUAGUACUGGAUCCCCCC [4-1BB aptamer SEQ 16]”, the selection result is “selected”.

As for “GGGAGAGAGGAAGAGGGAUGGGAAAGCGACAAUUCUUACUACUCCCCAAGCUCCACGCCUUUCAUAACCCAGAGGUCGAUAGUACUGGAUCCCCCC [4-1BB aptamer SEQ 12]”, the selection result is “selected”. With “GGGAGAGAGGAAGAGGGAUGGGCUUCCACACUCUCCUAGCUGGACAACAGACUAACCUUCUUCAUAACCCAGAGGUCGAUAGUACUGGAUCCCCCC [4-1BB aptamer SEQ 34]” the entry was “selected”; with “GGGAGAGAGGAAGAGGGAUGGGCACCCGUCUGCCAGACGCUCGACCCAAACUCCAGCCUCUCAUAACCCAGAGGUCGAUAGUACUGGAUCCCCCC [4-1BB aptamer SEQ 35]”, “selected”. With “GGGAGAGAGGAAGAGGGAUGGGCAGAAACUAGACCUCCGAUCGGACACCCGGUCCCUUCGUCCAUAACCCAGAGGUCGAUAGUACUGGAUCCCCCC [4-1BB aptamer SEQ 5]” the entry was “selected”; with “GGGAGAGAGGAAGAGGGAUGGGGACCAAGGGCAGCAUCACCGUUCCCCCCCUAGGAGCUUACCAUAACCCAGAGGUCGAUAGUACUGGAUCCCCCC [4-1BB aptamer SEQ 15]”, “selected”; with “GGGAGAGAGGAAGAGGGAUGGGCCUCCUUCCUAACCCGCAAACACGAUUGGCUCGAAACUUCCAUAACCCAGAGGUCGAUAGUACUGGAUCCCCCC [4-1BB aptamer SEQ 27]”, “selected”. Regarding “GGGAGAGAGGAAGAGGGAUGGGAACUACCUCCUCGAACCAUAGUUCAACACCAUCCAGCCAUCAUAACCCAGAGGUCGAUAGUACUGGAUCCCCCC [4-1BB aptamer SEQ 19]”, the selection result is given as “selected”. With “GGGAGAGAGGAAGAGGGAUGGGUGAUCCAAAACCAAAUAGCAGUAGACUCUCGAAGAGGACGCAUAACCCAGAGGUCGAUAGUACUGGAUCCCCCC [4-1BB aptamer SEQ 36]” the entry was “selected”; with “GGGAGAGAGGAAGAGGGAUGGGGCACAGCAACACCACGACCCCCCCUAGGCUUCCGCCCGCCCAUAACCCAGAGGUCGAUAGUACUGGAUCCCCCC [4-1BB aptamer SEQ 8]”, “selected”; with “GGGAGAGAGGAAGAGGGAUGGGCGCUCUCUCACAACCACGACCUCCGAUCUGAUAAUUCGUCCAUAACCCAGAGGUCGAUAGUACUGGAUCCCCCC [4-1BB aptamer SEQ 17]”, “selected”. With “GGGAGAGAGGAAGAGGGAUGGGCAAACCCAUGCAAGACUCUUCAAUCUCCAACCCCUUCCAACAUAACCCAGAGGUCGAUAGUACUGGAUCCCCCC [4-1BB aptamer SEQ 37]” the entry was “selected”; with “GGGAGAGAGGAAGAGGGAUGGGCGACCGAACGUGCCCUUCAAAGCCGUUCACUAACCAGUGACAUAACCCAGAGGUCGAUAGUACUGGAUCCCCCC [4-1BB aptamer SEQ 3 (full SEQ 88)]”, “selected”. As for “GGGAGAGAGGAAGAGGGAUGGGCGAGAACCCGCAUCUUCGGAUGCGCCCCCCUAGGACUUACCAUAACCCAGAGGUCGAUAGUACUGGAUCCCCCC [4-1BB aptamer SEQ 14]”, the entry is “selected”; as for “GGGAGAGAGGAAGAGGGAUGGGCUCCUAGACAGACGAUGUCUGAACGACUCUUGAAGGGCAGCAUAACCCAGAGGUCGAUAGUACUGGAUCCCCCC [4-1BB aptamer SEQ 20]”, “selected”; as for “GGGAGAGAGGAAGAGGGAUGGGGACCACCACAGCGACAGGCUCGCACGACUCUCGAAGAGGCAUAACCCAGAGGUCGAUAGUACUGGAUCCCCCC [4-1BB aptamer SEQ 25]”, “selected”. With “GGGAGAGAGGAAGAGGGAUGGGCUCCUAGUCAGACGAUGUCUGAACGACUCUUGAAGGGCAGCAUAACCCAGAGGUCGAUAGUACUGGAUCCCCCC [4-1BB aptamer SEQ 43]”, the selection result is listed as “selected”. On to “GGGAGAGAGGAAGAGGGAUGGGUCACCCGACGAUACCUAACUUCCUCCGACAAGCCUUUGCCCAUAACCCAGAGGUCGAUAGUACUGGAUCCCCCC [4-1BB aptamer SEQ 22]”, for which the selection result is given as “selected”. With “GGGAGAGAGGAAGAGGGAUGGGACGACCACCAACGAUUGAGCAGCUAGAUUCGACCGACACUCAUAACCCAGAGGUCGAUAGUACUGGAUCCCCCC [4-1BB aptamer SEQ 46]” the entry was “selected”; with “GGGAGAGAGGAAGAGGGAUGGGCUUCAACAACGACUCGCCAUACAACAACACACAACCCCUUCAUAACCCAGAGGUCGAUAGUACUGGAUCCCCCC [4-1BB aptamer SEQ 38]”, “selected”. With “GGGAGAGAGGAAGAGGGAUGGGGCACAGCAACACCACGACCCCCCCUAGGCUUCCGCCCGCGCAUAACCCAGAGGUCGAUAGUACUGGAUCCCCCC [4-1BB aptamer SEQ 9]”, the selection result is recorded as “selected”. Take “GGGAGAGAGGAAGAGGGAUGGGCGACCGAACGUGCCCUUCAAAGCCGUUCACUAACCAGUGGCAUAACCCAGAGGUCGAUAGUACUGGAUCCCCCC [4-1BB aptamer SEQ 30]”: the selection result is “selected”. With “GGGAGAGAGGAAGAGGGAUGGGCUCCAAUCCCCGAAAUCUUCAAGCUGCUCUCCAGUCCCCACAUAACCCAGAGGUCGAUAGUACUGGAUCCCCCC [4-1BB aptamer SEQ 41]”, the selection result is “selected”. As for “GGGAGAGAGGAAGAGGGAUGGGAAGUUAAUCGCGCCUUACCAGCUUCAGGACCAUUCAAUUCCAUAACCCAGAGGUCGAUAGUACUGGAUCCCCCC [4-1BB aptamer SEQ 33]”, the entry is “selected”; as for “GGGAGAGAGGAAGAGGGAUGGGCUGACUGCCACUUCUUCCCAGCAAUCUUCACCGUCCUUCUCAUAACCCAGAGGUCGAUAGUACUGGAUCCCCCC [4-1BB aptamer SEQ 32]”, “selected”.

Source of the values: patent US20100076060.
